# These are yes or no findings as the source states them, for the method shown. Binding seen in cells or lysates may run through a third protein. Some entries that bind do so weakly or less than the wild type.
# Sequences of proteins named here, by UniProt entry; tags and fusion partners are left off. A change or cut given only in a name is not applied to a line headed by its entry. A line that says so, or that is headed by a name, gives the form on record, which may keep a tag or linker. Residues count along the entry.
# eYFP-ATZ (enhanced YFP-tagged α1-antitrypsin Z, E342K), expressed in Huh7.5 cells (P01009, form named): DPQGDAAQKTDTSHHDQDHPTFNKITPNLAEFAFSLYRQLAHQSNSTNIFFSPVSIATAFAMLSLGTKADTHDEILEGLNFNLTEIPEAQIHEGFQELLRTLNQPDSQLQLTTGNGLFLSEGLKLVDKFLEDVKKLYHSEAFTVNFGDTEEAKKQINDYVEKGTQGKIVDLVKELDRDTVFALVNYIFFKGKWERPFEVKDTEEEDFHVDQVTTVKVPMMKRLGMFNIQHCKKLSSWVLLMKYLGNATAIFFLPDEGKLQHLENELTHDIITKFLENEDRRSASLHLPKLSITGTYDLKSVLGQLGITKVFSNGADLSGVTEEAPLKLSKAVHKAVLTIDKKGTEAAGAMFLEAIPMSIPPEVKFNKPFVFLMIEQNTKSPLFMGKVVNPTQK
# UniProt P20029, residues 20-655: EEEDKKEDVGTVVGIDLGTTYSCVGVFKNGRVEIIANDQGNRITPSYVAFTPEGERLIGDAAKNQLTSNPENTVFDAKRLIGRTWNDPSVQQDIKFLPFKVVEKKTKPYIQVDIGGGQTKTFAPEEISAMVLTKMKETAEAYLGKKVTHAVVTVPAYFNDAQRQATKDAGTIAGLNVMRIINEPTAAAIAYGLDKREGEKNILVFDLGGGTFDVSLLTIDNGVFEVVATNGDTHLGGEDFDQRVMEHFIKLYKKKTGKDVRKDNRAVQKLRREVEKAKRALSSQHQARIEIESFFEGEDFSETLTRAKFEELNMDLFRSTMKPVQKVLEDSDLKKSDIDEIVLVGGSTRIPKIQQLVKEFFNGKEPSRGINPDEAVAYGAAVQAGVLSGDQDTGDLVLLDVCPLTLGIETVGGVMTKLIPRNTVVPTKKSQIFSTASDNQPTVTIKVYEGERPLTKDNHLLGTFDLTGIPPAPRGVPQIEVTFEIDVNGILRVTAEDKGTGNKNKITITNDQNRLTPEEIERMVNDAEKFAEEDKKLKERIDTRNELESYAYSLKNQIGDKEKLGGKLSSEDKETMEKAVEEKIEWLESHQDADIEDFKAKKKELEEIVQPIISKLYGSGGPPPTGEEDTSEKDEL
# UniProt P11021, residues 19-654: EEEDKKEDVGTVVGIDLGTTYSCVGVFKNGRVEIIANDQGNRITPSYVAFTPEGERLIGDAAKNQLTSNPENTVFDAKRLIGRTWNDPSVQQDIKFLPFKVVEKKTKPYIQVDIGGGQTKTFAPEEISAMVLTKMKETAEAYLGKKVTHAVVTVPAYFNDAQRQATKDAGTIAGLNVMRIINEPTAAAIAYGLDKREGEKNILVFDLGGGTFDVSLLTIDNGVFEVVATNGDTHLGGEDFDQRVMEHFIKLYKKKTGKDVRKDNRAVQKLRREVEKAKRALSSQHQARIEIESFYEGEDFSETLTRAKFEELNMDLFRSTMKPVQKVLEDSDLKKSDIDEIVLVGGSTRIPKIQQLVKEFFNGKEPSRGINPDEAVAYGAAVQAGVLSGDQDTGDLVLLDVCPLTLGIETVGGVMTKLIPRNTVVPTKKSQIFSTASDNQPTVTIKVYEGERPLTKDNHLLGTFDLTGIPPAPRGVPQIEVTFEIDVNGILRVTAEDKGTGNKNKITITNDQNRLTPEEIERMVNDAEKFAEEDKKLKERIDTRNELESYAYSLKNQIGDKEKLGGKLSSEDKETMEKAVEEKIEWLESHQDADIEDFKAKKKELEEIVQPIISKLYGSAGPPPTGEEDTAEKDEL
# Tests used:
# [1] = target: eYFP-ATZ (enhanced YFP-tagged α1-antitrypsin Z, E342K), expressed in K42 mouse embryonic fibroblasts (human) (UniProt P01009); experiment: co-IP; K42 cells (CRT-/- or CRT WT) transfected with eYFP-AAT or eYFP-ATZ; cross-linked with 2 mM DTBP; 1% digitonin lysis; precipitation with anti-AAT polyclonal antibody and Protein G Sepharose; immunoblot
# [2] = target: eYFP-ATZ (enhanced YFP-tagged α1-antitrypsin Z, E342K), expressed in Huh7.5 cells (human) (UniProt P01009); experiment: co-IP; Huh7.5 CRT KO and WT cells transfected with eYFP-ATZ; cross-linked with 2 mM DTBP; 1% Triton X-100 lysis; precipitation with anti-AAT antibody and Protein G Sepharose or with GFP-Trap agarose; immunoblot
Molecule,binding [1],binding [2]
"binding immunoglobulin protein (BiP), endogenous in K42 mouse embryonic fibroblasts (from UniProt P20029 20-655)",binds,–
"binding immunoglobulin protein (BiP, HSPA5), endogenous in Huh7.5 cells (from UniProt P11021 19-654)",–,binds
"calnexin (CNX), endogenous in Huh7.5 cells (protein, UniProt P27824 21-592) HDGHDDDVIDIEDDLDDVIEEVEDSKPDTTAPPSSPKVTYKAPVPTGEVYFADSFDRGTLSGWILSKAKKDDTDDEIAKYDGKWEVEEMKESKLPGDKGLVLMSRAKHHAISAKLNKPFLFDTKPLIVQYEVNFQNGIECGGAYVKLLSKTPELNLDQFHDKTPYTIMFGPDKCGEDYKLHFIFRHKNPKTGIYEEKHAKRPDADLKTYFTDKKTHLYTLILNPDNSFEILVDQSVVNSGNLLNDMTPPVNPSREIEDPEDRKPEDWDERPKIPDPEAVKPDDWDEDAPAKIPDEEATKPEGWLDDEPEYVPDPDAEKPEDWDEDMDGEWEAPQIANPRCESAPGCGVWQRPVIDNPNYKGKWKPPMIDNPSYQGIWKPRKIPNPDFFEDLEPFRMTPFSAIGLELWSMTSDIFFDNFIICADRRIVDDWANDGWGLKKAADGAAEPGVVGQMIEAAEERPWLWVVYILTVALPVFLVILFCCSGKKQTSGMEYKKTDAPQPDVKEEEEEKEEEKDKGDEEEEGEEKLEEKQKSDAEEDGGTVSQEEEDRKPKAEEDEILNRSPRNRKPRRE",–,binds

# From publication PMC7864070
